The list is a part of this screen's results and no random one: it is rich in T/C values a quarter to a half above the control, in often repeated tests (any T/C) and in doses without a T/C. Other doses and runs of a compound stand elsewhere. T/C gives the treated animals as a percentage of the vehicle group. Some doses have a count of surviving animals in place of a T/C: the source holds a T/C of zero for them, seemingly a mark for toxic or unscored doses. Some survivor counts are full or nearly so, which does not show that the dose was tolerated: survival well below the control is almost never listed, so the zero probably covers shortened survival too. Survivors were counted at the toxicity check, usually on the fifth day, unless a day is given; later deaths do not show. Schedules are NCI's codes, read here as Q, the interval in days (D) or hours (H), X, the number of doses. Some entries were tested several times; the values are given in rising order. For survival time, this PubChem deposit counts one and a half times the control or more as active, and values a quarter to a half above the control carry no call in these data; other NCI protocols may use other cut-offs. Some T/C values carry the count of animals alive at the toxicity check (mostly the fifth day); where none is given, no animal had died by that day.
Tested on: CD2F1 mice, intracerebral L1210 leukemia, survival T/C
Test: NCI In Vivo Anticancer Drug Screen. Data for tumor model L1210 Leukemia (intracerebral) in CD2F1 (CDF1) mice
Details: higher T/C = longer survival
Description: The antitumor activity of compounds was measured in mice bearing transplantable tumors. Survival or tumor size were measured and the results are expressed as the measurement made in the treated group (T) divided by the measurement made in the vehicle treated control group (C). The tumor model used in this assay is L1210 Leukemia (intracerebral) in CD2F1 (CDF1) mice

What does the source list for NC(CSC(c1ccccc1)(c1ccccc1)c1ccccc1)C(=O)O (centres undefined)?
T/C (T/C endpoint: median survival time, dose: 32.0 mg/kg/injection, schedule: Q01DX005 (ip), vehicle: Klucel (hydroxypropylcellulose) (HPC)): 126 % of control; T/C (T/C endpoint: median survival time, dose: 64.0 mg/kg/injection, schedule: Q01DX005 (ip), vehicle: Klucel (hydroxypropylcellulose) (HPC)): 133 % of control; survivor count (T/C endpoint: median survival time, dose: 128.0 mg/kg/injection, schedule: Q01DX005 (ip), vehicle: Klucel (hydroxypropylcellulose) (HPC)): 9 of 10; survivor count (T/C endpoint: median survival time, dose: 256.0 mg/kg/injection, schedule: Q01DX005 (ip), vehicle: Klucel (hydroxypropylcellulose) (HPC)): 0 of 10

COc1ccc(CC2C(=O)NC(C)C(=O)N(C)C3C(=O)N(C)C(Cc4ccc(O)c(c4)Oc4ccc(cc4)C3O)C(=O)NC(C)C(=O)NC(C)C(=O)N2C)cc1 (centres undefined) was tested. Which survivor count (T/C endpoint: median survival time, dose: 0.12 mg/kg/injection, schedule: Q01DX009 (ip), vehicle: Klucel (hydroxypropylcellulose) (HPC)) did it give?
The survivor count was 0 of 6.

What does the source list for CC1C[C@@H](O)C(NC(=O)N(CCCl)N=O)[C@@H](O)C1 (some centres undefined)?
T/C (T/C endpoint: mean survival time, dose: 9.0 mg/kg/injection, schedule: Q01DX001 (ip), vehicle: saline): 141 % of control; survivor count (T/C endpoint: mean survival time, dose: 67.0 mg/kg/injection, schedule: Q01DX001 (ip), vehicle: saline): 7 of 10

What does the source list for CN(Cc1cnc2nc(N)nc(N)c2n1)c1c(Cl)cc(C(=O)NC(CCC(=O)O)C(=O)O)cc1Cl (centres undefined)?
T/C (T/C endpoint: median survival time, dose: 32.0 mg/kg/injection, schedule: Q01DX005 (ip), vehicle: saline): 127 % of control; T/C (T/C endpoint: median survival time, dose: 128.0 mg/kg/injection, schedule: Q01DX005 (ip), vehicle: saline): 125 and 133 % of control

Which survivor count (T/C endpoint: median survival time, dose: 1024.0 mg/kg/injection, schedule: Q01DX005 (ip), vehicle: saline) does the source give for Nc1nc2c(c(=O)[nH]1)N(C=O)C(CNc1ccc(C(=O)N[C@@H](CCC(=O)O)C(=O)O)cc1)CN2 (some centres undefined) here?
Its survivor count is 0 of 10 and 5 of 10.

What does the source list for COC(=O)c1ccccc1N=NN(C)C?
survivor count (T/C endpoint: mean survival time, dose: 20.0 mg/kg/injection, schedule: Q01DX007 (ip), vehicle: other): 6 of 6; survivor count (T/C endpoint: mean survival time, dose: 40.0 mg/kg/injection, schedule: Q01DX007 (ip), vehicle: other): 0 of 6

O=NN(CCCl)C(=O)NC1CCC(=O)NC1=O (centres undefined) was tested. Which T/C (T/C endpoint: median survival time, dose: 4.0 mg/kg/injection, schedule: Q01DX001 (ip), vehicle: DMSO) did it give?
Its T/C is 126 % of control.

And the T/C (T/C endpoint: median survival time, dose: 4.0 mg/kg/injection, schedule: Q01DX001 (ip), vehicle: saline + alcohol)?
Its T/C is 129 % of control.

And the T/C (T/C endpoint: median survival time, dose: 4.0 mg/kg/injection, schedule: Q01DX001 (oral), vehicle: saline + alcohol)?
Its T/C is 136 % of control.

What about the survivor count (T/C endpoint: median survival time, dose: 64.0 mg/kg/injection, schedule: Q01DX001 (ip), vehicle: DMSO) of the same compound?
Its survivor count is 3 of 4.

What does the source list for COc1ccc2c(c1)CCC(c1ccccc1)=C2c1ccc(OCCN2CCCC2)cc1?
T/C (T/C endpoint: median survival time, dose: 48.0 mg/kg/injection, schedule: Q01DX005 (ip), vehicle: Klucel (hydroxypropylcellulose) (HPC)): 148 % of control [9 of 10 alive]; survivor count (T/C endpoint: median survival time, dose: 96.0 mg/kg/injection, schedule: Q01DX005 (ip), vehicle: Klucel (hydroxypropylcellulose) (HPC)): 10 of 10

What does the source list for C[C@@H](CN1CC(=O)NC(=O)C1)N1CC(=O)NC(=O)C1?
T/C (T/C endpoint: mean survival time, dose: 16.0 mg/kg/injection, schedule: Q01DX009 (ip), vehicle: water): 128 % of control; T/C (T/C endpoint: mean survival time, dose: 32.0 mg/kg/injection, schedule: Q01DX009 (ip), vehicle: water): 146 % of control; T/C (T/C endpoint: mean survival time, dose: 128.0 mg/kg/injection, schedule: Q01DX009 (ip), vehicle: water): 133 % of control

CC[C@H]1CN2CCc3cc(OC)c(OC)cc3[C@@H]2C[C@@H]1C[C@H]1NCCc2cc(OC)c(OC)cc21 was tested. Which T/C (T/C endpoint: median survival time, dose: 2.0 mg/kg/injection, schedule: Q01DX005 (ip), vehicle: Klucel (hydroxypropylcellulose) (HPC)) did it give?
The T/C was 132 % of control [9 of 10 alive].

What about the T/C (T/C endpoint: median survival time, dose: 4.0 mg/kg/injection, schedule: Q01DX005 (ip), vehicle: Klucel (hydroxypropylcellulose) (HPC)) of the same compound?
The T/C was 136 % of control.

And the T/C (T/C endpoint: median survival time, dose: 8.0 mg/kg/injection, schedule: Q01DX005 (ip), vehicle: Klucel (hydroxypropylcellulose) (HPC))?
Its T/C is 130 % of control.

What about the survivor count (T/C endpoint: median survival time, dose: 16.0 mg/kg/injection, schedule: Q01DX005 (ip), vehicle: Klucel (hydroxypropylcellulose) (HPC)) of the same compound?
Its survivor count is 6 of 10 and 8 of 10.

With CN(N=O)C(N)=O as the compound, how does the T/C (T/C endpoint: median survival time, dose: 8.0 mg/kg/injection, schedule: Q01DX009 (ip), vehicle: saline + alcohol) read?
The T/C was 141 % of control.

And the T/C (T/C endpoint: median survival time, dose: 160.0 mg/kg/injection, schedule: Q01DX001 (ip), vehicle: saline + alcohol)?
The T/C was 131 % of control.

And the survivor count (T/C endpoint: median survival time, dose: 160.0 mg/kg/injection, schedule: Q01DX001 (ip), vehicle: saline)?
The survivor count was 7 of 10.

What about the survivor count (T/C endpoint: median survival time, dose: 320.0 mg/kg/injection, schedule: Q01DX001 (ip), vehicle: saline) of the same compound?
The survivor count was 0 of 10.
